Data as given in PubChem BioAssay AID743454 (Peter MacCallum Cancer Centre, 2014)
Purpose: 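Knock-downs lowering viability or raising caspase 3/7 activity in vorinostat-treated resistant cells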 (primary screen). Cell system: human HCT116-VR colon cancer cells, selected for vorinostat resistance. Knock-down reagent: siRNA pool against human genes, 40 nM siRNA pool. Time to read-out: vorinostat for 24 h, read-out about 72 h after transfection. Treatment: vorinostat at 2.5 µM final. Detection: 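Cell viability by CellTiter-Fluor and caspase 3/7 activity by luminescence, each scaled to mock wells per plate, duplicates averaged, then robust z-scored over all plates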. Reading the numbers: viability robust z-score: higher = more viable cells than screen typical; caspase robust z-score: higher = more caspase 3/7 activity than screen typical. Active means: 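Hits are knock-downs in viability class RV1/RV2 or caspase class CA1/CA2, excluding ones that killed cells in the no-drug cell-count arm; hits then retested with single siRNAs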.
Shown is a random part of about 18,000 reagents tested. In the full data, 450 (2.5%) got an active call. 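Single biological run; no consistent viability z cut-off exists, so the class columns, not z-scores, define the calls.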

gene knocked down | viability hit class | caspase hit class | viability robust z-score | caspase robust z-score | activity call
INTS6L | no change | CA2 (caspase activation) | -1.62 | 5.4 | active
CHMP2B | no change | no change | -0.62 | -0.98 | inactive
CCL14 | no change | no change | 1 | -0.62 | inactive
ITGB4 | no change | no change | -0.54 | 0.24 | inactive
DRC8 | no change | no change | -0.18 | -0.03 | inactive
WASHC4 | no change | no change | -2.38 | 2.88 | inactive
LRRC49 | no change | no change | 1.62 | 0.1 | inactive
GTF2H4 | no change | no change | -0.34 | -0.24 | inactive
SGSM2 | no change | no change | 2.23 | -0.44 | inactive
OR10A6 | no change | no change | -1.27 | 3.5 | inactive
CLIC6 | no change | no change | -0.44 | -0.9 | inactive
TRA2B | no change | no change | -1.16 | 1.65 | inactive
JRKL | no change | no change | 1.1 | -0.34 | inactive
ECHS1 | no change | no change | -1.05 | 3.78 | inactive
FDFT1 | no change | no change | -1.42 | -0.43 | inactive

The list goes on; the last 2 above are carried over.
gene knocked down | viability hit class | caspase hit class | viability robust z-score | caspase robust z-score | activity call
ECHS1 | no change | no change | -1.05 | 3.78 | inactive
FDFT1 | no change | no change | -1.42 | -0.43 | inactive
FGFR4 | no change | no change | 0.52 | 1.7 | inactive
ZFR | no change | no change | 0.73 | 0.66 | inactive
KMT2C | no change | no change | -0.8 | 0.58 | inactive
PLG | no change | no change | 0.77 | -0.28 | inactive
UBE3C | no change | no change | 0.76 | -0.18 | inactive
VPS25 | no change | no change | 1.44 | -0.28 | inactive
TAC3 | no change | no change | 0.08 | 0.25 | inactive
LRRC71 | no change | no change | -1.6 | 0.62 | inactive
